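Firefly luciferase light from HEK293 cells carrying a huntingtin (HTT) promoter reporter, read after 24 hours of compound exposure, giving single-concentration activity change.
Percent change in reporter signal versus vehicle (0%) down to no light (-100%); more negative values mean stronger inhibition of promoter activity.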

Values are in %.
Common to all entries: at 57.5 µM (top of the series).
Only part of the assay is listed here, not a random draw.

Result for Cc1ccccc1CCNC(=O)c1cc2ccccn2n1 was activity change 62.86%. Cc1c(NC(=O)c2sc3ccccc3c2Cl)cccc1-c1nc2ccccc2o1 read activity change -1.537%. COc1ccc(N(C(=O)/C=C\C(=O)Nc2ccc(Cl)cc2)C(C(=O)NCc2ccco2)c2ccc(C)cc2)cc1 (centres unmarked) read activity change -63.48%. For CCOc1ccc(CNC(=O)c2cc3c(=O)n(Cc4cccs4)ccc3nc2C)cc1 the result was activity change -36.66%. For COc1ccc(NC(=O)CC2C(=O)N(c3cccc(OC)c3)C(=O)N2Cc2cccnc2)cc1 (centres unmarked) the result was activity change -8.257%. COc1ccc(F)cc1S(=O)(=O)Nc1cccc(-c2ccc(N3CCC(C)CC3)nn2)c1 read activity change 12.06%.

Result for Cc1nn(-c2ccc(N3CCCC3)nn2)c(C)c1CCC(=O)Nc1ccc(F)c(Cl)c1 was activity change -25.43%. For Cc1c(Cl)cccc1NC(=O)CC(c1ccc(F)cc1)N1Cc2ccccc2C1=O (centres unmarked) the result was activity change -64.29%. COc1cc(NC(=O)c2cc(-c3cccc(Cl)c3)on2)c(OC)cc1Cl gave activity change -6.008%. Cc1ccc(-c2nnc(Nc3ccc(C(N)=O)cc3)c3ccccc23)cc1S(=O)(=O)N1CCCCC1 gave activity change -28.29%. With Cc1cc(S(=O)(=O)Nc2cccc(-c3ccc(N4CCOCC4)nn3)c2)c(C)cc1Cl the assay gave activity change -9.954%. With CCc1nn(CC(=O)NC(C)C)c(=O)c2cc3cc(F)ccc3n12 the assay gave activity change -7.383%.

Cc1cc(C)c(Cn2c(CCNC(=O)c3ccco3)nc3ccccc32)c(C)c1 read activity change -35.77%. CCOC(=O)c1ccc(NC(=O)CC2C(=O)N(c3cccc(OC)c3)C(=O)N2Cc2cccnc2)cc1 (centres unmarked) read activity change -21.28%. With COCCOC(=O)C1=C(C)NC(=O)NC1c1cn(-c2ccccc2)nc1-c1ccccc1 (centres unmarked) the assay gave activity change -15.64%. For CC1Cc2cc(S(=O)(=O)CCC(=O)Nc3ccc(OC(F)(F)F)cc3)ccc2N1C(=O)C1CC1 (centres unmarked) the result was activity change -62.05%. COc1ccccc1CCNC(=O)CCc1c(C)c2cc3c(C)coc3cc2oc1=O read activity change -16.42%. For CCCC(=O)Nc1ccc2oc(-c3ccc(O)c(Br)c3)nc2c1 the result was activity change 66.76%.

With CCOC(=O)c1c(NC(=O)c2cc(-c3cccc(Cl)c3)on2)sc(C)c1C the assay gave activity change -3.466%. CC(C)(C)c1ccc(C2Sc3ccccc3NC3=C2C(=O)c2ccccc23)cc1 (centres unmarked) read activity change -92.19%. O=S(=O)(Nc1cccc(-c2ccc(N3CCOCC3)nn2)c1)c1ccccc1C(F)(F)F read activity change -5.462%. For CCc1ccc(CNC(=O)c2cc3c(=O)n(Cc4cccs4)ccc3nc2C)cc1 the result was activity change -40.38%. With COc1cc(C2CC(=O)Nc3c2c(C)nn3-c2nncc(-c3ccc(C)cc3)n2)cc(OC)c1OC (centres unmarked) the assay gave activity change -5.515%. With CC(=O)c1ccc(S(=O)(=O)Nc2ccc(-c3ccc(N4CCCCCC4)nn3)cc2)cc1 the assay gave activity change 13.07%.

C=C(C)Cn1c(SCC(=O)Nc2ccccc2C)nc2sc3c(c2c1=O)CCCC3 read activity change -13.44%. Result for O=S(=O)(Nc1ccc(-c2ccc(N3CCCC3)nn2)cc1)c1ccc(Br)cc1 was activity change -15.66%. COc1ccc(NC2=C(c3ccccc3)C(=O)c3ccccc32)cc1Cl gave activity change -32.11%. Result for CC(=O)c1cc2c(cc1NC(=O)c1cnn(-c3ccc(C)cc3)c1-n1cccc1)OCO2 was activity change -16.04%. With COc1cc2oc(=O)c(CC(=O)NCCc3ccccc3F)c(C)c2cc1OC the assay gave activity change -13.99%. For O=C(Cn1c(=O)oc2ccccc21)NCc1cccc(Cl)c1 the result was activity change 0.9945%.

CCOC(=O)c1cc(C)n(CC2CCC(C(=O)Nc3ccc(OCC)cc3)CC2)c1C (centres unmarked) gave activity change -96.47%. Result for CCOC(=O)c1ccc(NC(=O)C2CCN(S(=O)(=O)Cc3ccccc3)CC2)cc1 was activity change 2.263%. For COc1ccc(OC)c(NC(=O)/C=C/c2ccc(C)o2)c1 the result was activity change 4.311%. With Cc1ccc(-c2nnc(Nc3cccc(Cl)c3)c3ccccc23)cc1S(=O)(=O)N1CCCCC1 the assay gave activity change -29.79%. Result for Cc1nn(CC(=O)NCCc2ccc(Cl)cc2)c(=O)c2cc3cc(F)ccc3n12 was activity change -10.39%. Cc1ccc(NC(=O)c2c(C(=O)Nc3ccccc3)sc3nc(C)cc(=O)n23)cc1 gave activity change -18.8%.

Cc1ccc(NC(=O)c2cc(-c3ccc4c(c3)OCO4)on2)cc1 gave activity change 4.011%. COc1cccc(OCCn2c(-c3ccc(Br)cc3)nc3ccccc3c2=O)c1 gave activity change -3.508%. CCN(CC)S(=O)(=O)c1cc(-c2nnc(Nc3ccc(OC)c(C(N)=O)c3)c3ccccc23)ccc1C read activity change -47.69%. CC(C)(C)C1CCc2c(sc(NC(=O)c3noc4c3CCCC4)c2C#N)C1 (centres unmarked) read activity change -10.11%. Result for COc1ccc(S(=O)(=O)Nc2cccc(-c3ccc(N4CCCCCC4)nn3)c2)c(OC)c1 was activity change 10.75%. For Cc1cc(C)c(S(=O)(=O)Nc2ccc(-c3ccc(N4CCCCCC4)nn3)cc2)c(C)c1 the result was activity change 3.024%.

COc1ccc(OCc2nnc(-c3ccccc3)o2)cc1 gave activity change 18.84%. With COc1cc(C)c(S(=O)(=O)Nc2cccc(-c3ccc(N4CCCC4)nn3)c2)cc1C the assay gave activity change -14.58%. With O=C1C(=O)N(C2CCN(S(=O)(=O)c3ccccc3)CC2)CCN1Cc1ccccc1 the assay gave activity change -13.18%. With CCOC(=O)c1ccc(N2CCN(c3cc(Cl)ccc3C)CC2)c(NC(=O)Nc2ccc(OCC)cc2)c1 the assay gave activity change -12.25%. Result for CCOc1cc(Br)cc(C2NC(=O)c3c(sc4c3CCN(C)C4)N2)c1O (centres unmarked) was activity change -2.683%. For O=C(C1CCN(S(=O)(=O)Cc2ccccc2)CC1)N1CCN(c2cccc(C(F)(F)F)c2)CC1 the result was activity change -29.18%.

With CC(C)c1ccc(S(=O)(=O)N2CCC(n3c(C(F)(F)F)nc4cccnc43)CC2)cc1 the assay gave activity change -9.649%. CCOC(=O)c1cc(C)n(CC2CCC(C(=O)Nc3ccc(C)cc3)CC2)c1C (centres unmarked) read activity change -52.12%. With Cc1nc2scc(C)n2c(=O)c1S(=O)(=O)Nc1cccc(C(F)(F)F)c1 the assay gave activity change -55.19%.

The last 4 entries again:

Compound	activity change (%)
O=C(C1CCN(S(=O)(=O)Cc2ccccc2)CC1)N1CCN(c2cccc(C(F)(F)F)c2)CC1	-29.18
CC(C)c1ccc(S(=O)(=O)N2CCC(n3c(C(F)(F)F)nc4cccnc43)CC2)cc1	-9.649
CCOC(=O)c1cc(C)n(CC2CCC(C(=O)Nc3ccc(C)cc3)CC2)c1C (centres unmarked)	-52.12
Cc1nc2scc(C)n2c(=O)c1S(=O)(=O)Nc1cccc(C(F)(F)F)c1	-55.19

Data taken from PubChem BioAssay AID1508623, deposited by NCATS (2021).